The source of these data is PMC8384837.

Settings in all cases: yeast three-hybrid, YBZ-1, SC-Leu-His + 0.5 mM 3-AT, 4 days
Test [1] concerns the target T1, PUM1 PUF domain R1-QFR R2-VFQ R7-NPG S863Q + R864F + Q867R + N899V + Y900F + S1079N + N1080P + E1083G (UniProt Q14671).
T1 sequence: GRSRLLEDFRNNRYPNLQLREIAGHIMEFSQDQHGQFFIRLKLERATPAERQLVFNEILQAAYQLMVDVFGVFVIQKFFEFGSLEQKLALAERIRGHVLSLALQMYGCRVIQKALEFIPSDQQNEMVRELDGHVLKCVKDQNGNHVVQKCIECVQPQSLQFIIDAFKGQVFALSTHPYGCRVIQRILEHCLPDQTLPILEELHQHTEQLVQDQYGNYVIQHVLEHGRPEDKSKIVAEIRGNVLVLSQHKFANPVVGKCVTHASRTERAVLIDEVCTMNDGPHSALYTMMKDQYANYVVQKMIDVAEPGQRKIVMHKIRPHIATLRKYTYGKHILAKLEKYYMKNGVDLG

The target in test [2] is T2, PUM1 PUF domain R3-THE R4-TFR C935T + R936H + Q939E + N971T + H972F + Q975R (UniProt Q14671).
T2 sequence: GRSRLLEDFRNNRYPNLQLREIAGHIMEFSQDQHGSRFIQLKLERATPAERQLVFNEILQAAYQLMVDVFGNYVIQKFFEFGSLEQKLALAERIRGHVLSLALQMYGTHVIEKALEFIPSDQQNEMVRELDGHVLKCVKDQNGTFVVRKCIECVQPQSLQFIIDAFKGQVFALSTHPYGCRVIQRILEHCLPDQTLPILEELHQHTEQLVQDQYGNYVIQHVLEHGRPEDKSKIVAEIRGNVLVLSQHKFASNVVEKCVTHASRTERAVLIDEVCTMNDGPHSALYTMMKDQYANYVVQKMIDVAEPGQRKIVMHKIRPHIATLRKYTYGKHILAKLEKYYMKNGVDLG

The target of test [3] is T3, PUM1 PUF domain R5-PHQ R6-SWD C1007P + R1008H + N1043S + Y1044W + Q1047D (UniProt Q14671).
T3 sequence: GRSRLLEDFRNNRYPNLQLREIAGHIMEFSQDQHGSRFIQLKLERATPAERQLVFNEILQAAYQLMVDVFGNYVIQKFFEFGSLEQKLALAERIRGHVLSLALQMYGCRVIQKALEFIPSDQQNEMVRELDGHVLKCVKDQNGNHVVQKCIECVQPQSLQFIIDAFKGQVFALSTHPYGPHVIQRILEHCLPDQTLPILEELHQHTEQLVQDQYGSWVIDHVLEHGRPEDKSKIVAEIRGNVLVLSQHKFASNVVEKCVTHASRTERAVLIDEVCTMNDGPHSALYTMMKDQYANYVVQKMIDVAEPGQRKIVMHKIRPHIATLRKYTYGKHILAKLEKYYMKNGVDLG

Test [4] has as its target T4, PUM1 PUF domain R6-SWD R7-NPG N1043S + Y1044W + Q1047D + S1079N + N1080P + E1083G (Homo sapiens) (UniProt Q14671).
T4 sequence: T3 sequence with P180C, H181R, S252N, N253P, E256G

The target of test [5] is T5, PUM1 PUF domain R3-THE R4-TFR R7-NPG C935T + R936H + Q939E + N971T + H972F + Q975R + S1079N + N1080P + E1083G (UniProt Q14671).
T5 sequence: T2 sequence with S252N, N253P, E256G

Test [6] concerns the target T6, PUM1 PUF domain R3-THE R4-TFR R7-NPG C935T + R936H + Q939E + N971T + H972F + Q975R + S1079N + N1080P + E1083G (Homo sapiens) (UniProt Q14671).
T6 sequence: T2 sequence with S252N, N253P, E256G

Test [7] addresses T7, PUM1 PUF domain R6-SWD R7-NPG N1043S + Y1044W + Q1047D + S1079N + N1080P + E1083G (UniProt Q14671).
T7 sequence: T3 sequence with P180C, H181R, S252N, N253P, E256G

Numbering of substitutions follows the chain as printed. The list shows a part of the results. For some assays here: At the low end of the ranking, values are background and their order means little. For some assays here: Construct or isoform of the protein are uncertain. Bounds are passed on as bounds.

As for “GGCUAGAACUAGUGGAUCCCCCGGCGCCCGGCGGCUCGAGCCCGGGUAAGUGGAGAGCGUCUGCAUGCCGCCGGGCGCCAUGCCUGCAGGUCGACUCUAGAAAACAUG”, the binding signal (log2 enrichment (interaction score)) in test [1] is less than -6.53; in test [2], -5.85; in test [3], -7.98.
In the same order, the values of “GGCUAGAACUAGUGGAUCCCCCGGCGCCCGGCGGCUCGAGCCCGGGUAAGGAUAAAUAGUCUGCAUGCCGCCGGGCGCCAUGCCUGCAGGUCGACUCUAGAAAACAUG” are -5.65, less than -7.12 and less than -7.04.
In the same order, the values of “GGCUAGAACUAGUGGAUCCCCCGGCGCCCGGCGGCUCGAGCCCGGGUAAGUGAAAAAAGUCUGCAUGCCGCCGGGCGCCAUGCCUGCAGGUCGACUCUAGAAAACAUG” are -5.89, -6.3 and less than -6.95.
In the case of “GGCUAGAACUAGUGGAUCCCCCGGCGCCCGGCGGCUCGAGCCCGGGUAAGUUGACCAAGUCUGCAUGCCGCCGGGCGCCAUGCCUGCAGGUCGACUCUAGAAAACAUG”, the binding signal (log2 enrichment (interaction score)) in test [1] is -6.17; in test [2], less than -6.86; in test [4], -0.82.
Turning to “GGCUAGAACUAGUGGAUCCCCCGGCGCCCGGCGGCUCGAGCCCGGGUAAGUAUAGACAGUCUGCAUGCCGCCGGGCGCCAUGCCUGCAGGUCGACUCUAGAAAACAUG”, the binding signal (log2 enrichment (interaction score)) in test [1] was less than -5.81; in test [2], -6.72; in test [3], less than -7.15; in test [4] it was -1.03.
“GGCUAGAACUAGUGGAUCCCCCGGCGCCCGGCGGCUCGAGCCCGGGUAAGUUGCCUAAGUCUGCAUGCCGCCGGGCGCCAUGCCUGCAGGUCGACUCUAGAAAACAUG”: the results for the binding signal (log2 enrichment (interaction score)) in test [1] and in test [5] were less than -5.65 and -2.83, respectively.
“GGCUAGAACUAGUGGAUCCCCCGGCGCCCGGCGGCUCGAGCCCGGGUAAGUUGACAAUGUCUGCAUGCCGCCGGGCGCCAUGCCUGCAGGUCGACUCUAGAAAACAUG”: the binding signal (log2 enrichment (interaction score)) is -6.44 in test [1], less than -1.13 in test [6] and less than -7.46 in test [3].
For the sequence “GGCUAGAACUAGUGGAUCCCCCGGCGCCCGGCGGCUCGAGCCCGGGUAAGUUGCACACGUCUGCAUGCCGCCGGGCGCCAUGCCUGCAGGUCGACUCUAGAAAACAUG”, the binding signal (log2 enrichment (interaction score)) in test [1] is less than -5.48; in test [6] it was -1.25.
In the same order, the values of “GGCUAGAACUAGUGGAUCCCCCGGCGCCCGGCGGCUCGAGCCCGGGUAAGGUCAGGAAGUCUGCAUGCCGCCGGGCGCCAUGCCUGCAGGUCGACUCUAGAAAACAUG” are -6.11 and less than -1.6.
As for “GGCUAGAACUAGUGGAUCCCCCGGCGCCCGGCGGCUCGAGCCCGGGUAAGUUGUACAAGUCUGCAUGCCGCCGGGCGCCAUGCCUGCAGGUCGACUCUAGAAAACAUG”, the binding signal (log2 enrichment (interaction score)) is less than -6.16 in test [1], -1.63 in test [6], -8.58 in test [3] and -2.86 in test [7].
With “GGCUAGAACUAGUGGAUCCCCCGGCGCCCGGCGGCUCGAGCCCGGGUAAGUUGUAAUCGUCUGCAUGCCGCCGGGCGCCAUGCCUGCAGGUCGACUCUAGAAAACAUG”, the binding signal (log2 enrichment (interaction score)) in test [1] is -6.34; in test [6], less than -1.22; in test [3], -7.98.
As to “GGCUAGAACUAGUGGAUCCCCCGGCGCCCGGCGGCUCGAGCCCGGGUAAGGUUUCCCCGUCUGCAUGCCGCCGGGCGCCAUGCCUGCAGGUCGACUCUAGAAAACAUG”, the values for the binding signal (log2 enrichment (interaction score)) in test [1] and in test [6] were -2.57 and -1.81, respectively.
With “GGCUAGAACUAGUGGAUCCCCCGGCGCCCGGCGGCUCGAGCCCGGGUAAGCUGAACUAGUCUGCAUGCCGCCGGGCGCCAUGCCUGCAGGUCGACUCUAGAAAACAUG”, the binding signal (log2 enrichment (interaction score)) in test [1] is -6.26; in test [6], -1.61; in test [4], -1.38.
Regarding “GGCUAGAACUAGUGGAUCCCCCGGCGCCCGGCGGCUCGAGCCCGGGUAAGACAGAAUGGUCUGCAUGCCGCCGGGCGCCAUGCCUGCAGGUCGACUCUAGAAAACAUG”, the binding signal (log2 enrichment (interaction score)) in test [1] is -6.53; in test [6], less than -1.22; in test [3] it was less than -7.19.
For “GGCUAGAACUAGUGGAUCCCCCGGCGCCCGGCGGCUCGAGCCCGGGUAAGUUAAAAUUGUCUGCAUGCCGCCGGGCGCCAUGCCUGCAGGUCGACUCUAGAAAACAUG”, the binding signal (log2 enrichment (interaction score)) in test [1] was -5.75; in test [6], -1.36.
For the sequence “GGCUAGAACUAGUGGAUCCCCCGGCGCCCGGCGGCUCGAGCCCGGGUAAGAAAACAUAGUCUGCAUGCCGCCGGGCGCCAUGCCUGCAGGUCGACUCUAGAAAACAUG”, the binding signal (log2 enrichment (interaction score)) was -5.44 in test [1], less than -1.7 in test [6] and -7.34 in test [3].
Regarding “GGCUAGAACUAGUGGAUCCCCCGGCGCCCGGCGGCUCGAGCCCGGGUAAGUCGAACACGUCUGCAUGCCGCCGGGCGCCAUGCCUGCAGGUCGACUCUAGAAAACAUG”, the results for the binding signal (log2 enrichment (interaction score)) in test [1] and in test [6] were -5.82 and less than -0.51, respectively.
The corresponding values for “GGCUAGAACUAGUGGAUCCCCCGGCGCCCGGCGGCUCGAGCCCGGGUAAGUUGCGGUUGUCUGCAUGCCGCCGGGCGCCAUGCCUGCAGGUCGACUCUAGAAAACAUG” are -5.94 and -1.38.
In the same order, the values of “GGCUAGAACUAGUGGAUCCCCCGGCGCCCGGCGGCUCGAGCCCGGGUAAGUGUAACACGUCUGCAUGCCGCCGGGCGCCAUGCCUGCAGGUCGACUCUAGAAAACAUG” are less than -6.6 and -1.1.
In the same order, the values of “GGCUAGAACUAGUGGAUCCCCCGGCGCCCGGCGGCUCGAGCCCGGGUAAGUUAUAAUGGUCUGCAUGCCGCCGGGCGCCAUGCCUGCAGGUCGACUCUAGAAAACAUG” are less than -4.12 and -1.46.
In the case of “GGCUAGAACUAGUGGAUCCCCCGGCGCCCGGCGGCUCGAGCCCGGGUAAGUGGCAGAAGUCUGCAUGCCGCCGGGCGCCAUGCCUGCAGGUCGACUCUAGAAAACAUG”, the binding signal (log2 enrichment (interaction score)) in test [1] was -5.93; in test [6], -1.32; in test [3], less than -7.22.
